The other results are listed elsewhere or left out.

This experiment deals with T1, OsSMF1 (Oryza sativa, UniProt Q6ZLB0 1-436).
T1 sequence: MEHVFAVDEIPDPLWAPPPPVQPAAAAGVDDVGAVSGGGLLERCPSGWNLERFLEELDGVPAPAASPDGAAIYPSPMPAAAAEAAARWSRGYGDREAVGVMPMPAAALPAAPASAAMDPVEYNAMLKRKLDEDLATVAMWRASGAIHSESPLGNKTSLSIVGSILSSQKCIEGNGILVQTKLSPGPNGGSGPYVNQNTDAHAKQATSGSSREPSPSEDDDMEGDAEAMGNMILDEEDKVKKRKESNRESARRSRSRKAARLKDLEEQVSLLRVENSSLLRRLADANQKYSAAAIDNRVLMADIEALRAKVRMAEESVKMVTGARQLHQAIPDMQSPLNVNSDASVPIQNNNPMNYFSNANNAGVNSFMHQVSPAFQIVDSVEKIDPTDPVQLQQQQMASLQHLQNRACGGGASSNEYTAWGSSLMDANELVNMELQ
Put plainly: protein-binding microarray (RPBM); PBS, 2% BSA, 51.3 ng/ul salmon testes DNA, 50 uM zinc acetate, 200 nM TF, 25 C, 1 h; high values mean tight binding. The conditions noted are these: protein: recombinant; tags: N-terminal polyhistidine and DsRed monomer fusion (pET32a); chain copies: 2; label: CyDye5-dUTP incorporated in the synthesized complementary strand; 3' TTTTT single-stranded linker to array surface; dsDNA, one strand shown. In short, it runs like this: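 For the binding signal, per-feature fluorescence intensity was read in arbitrary units on an Axon 4000B scanner. Before scanning, a 2% BSA-blocked custom Agilent array made double-stranded with Cy5-dUTP was washed after 1 h at 25 °C with 200 nM protein and 50 µM zinc acetate. The proteins were Ni–NTA-purified transcription factors with N-terminal polyhistidine and DsRed fusions, expressed in E. coli BL21-CodonPlus.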
As to “CACGCGCCGGTGCCTTGCGCCGTCACCGTGCCAGCCCAGCCGGAGTCACCTAGTGCAG”, the binding signal was 5670 fluorescence intensity (a.u.). Regarding “ATGGCCAACGCTCCACGCTGGAGCGTGGTCTCACCCTTTCCGGAGTCACCTAGTGCAG”, the binding signal is 4110 fluorescence intensity (a.u.). Consider “CGAACATAAGTTAGTGACGCATGCCTCAAAATGAAAAGGACGGAGTCACCTAGTGCAG”, for which the binding signal is 41400 fluorescence intensity (a.u.).

For the sequence “TAAGGCCTAAACCCAACTCAATCTCTCTAATTCATTTTGCCGGAGTCACCTAGTGCAG”, the binding signal is 3310 fluorescence intensity (a.u.).

Turning to “AAGCTTGATATATGAAATTGTACAGGCCATCAAAGTCAAGCGGAGTCACCTAGTGCAG”, the binding signal is 3850 fluorescence intensity (a.u.).

Turning to “CCAAAGCCACTTTTGACCGTGGTCTTACCTACGTGACACGCGGAGTCACCTAGTGCAG”, the binding signal was 5060 fluorescence intensity (a.u.). For the sequence “GACCGTCGGTGCAAACACGATCGGACGGTGGAGGACGATCCGGAGTCACCTAGTGCAG”, the binding signal is 3250 fluorescence intensity (a.u.).

As to “TTTTAGTGAATATAATGAAATTTCACAGGGGAGGGGCTGGCGGAGTCACCTAGTGCAG”, the binding signal is 4040 fluorescence intensity (a.u.).

As for “GGACCGAACTGACCCTACATTGCATGAATAATGCAGAGGTCGGAGTCACCTAGTGCAG”, the binding signal was 20800 fluorescence intensity (a.u.). “TCGCCTCTTGTGCCATTATCTGACTGGGGCTGATGAACAACGGAGTCACCTAGTGCAG”: the binding signal was 3370 fluorescence intensity (a.u.). Take “TATCGTACGCGACTAGGCGTGTGAGGTGACGGCAGTTTTGCGGAGTCACCTAGTGCAG”: the binding signal was 3840 fluorescence intensity (a.u.). As for “GGGGTGCTTCACAAATCCCCTTGCGTACATGAGGTGTTTTCGGAGTCACCTAGTGCAG”, the binding signal was 3320 fluorescence intensity (a.u.). As for “CACCTAGCACAGCACCATGACTAGACTATGATCATCAATTCGGAGTCACCTAGTGCAG”, the binding signal was 3580 fluorescence intensity (a.u.). “TGCACTGTGACTTCTGACTGTTATAAATTGTGTTCTCTTGCGGAGTCACCTAGTGCAG”: the binding signal is 3550 fluorescence intensity (a.u.). For “AGCTTAATATAGCACGTCAGCTTCTCAGCTCTAACCTCTCCGGAGTCACCTAGTGCAG”, the binding signal is 5780 fluorescence intensity (a.u.). Regarding “CAGTTTCTTCAGAGTTTTCTGAATGATGCTTATGATACATCGGAGTCACCTAGTGCAG”, the binding signal is 3230 fluorescence intensity (a.u.). Regarding “CGACACATGACTTCACCGCCTGACGCCGCCTCACCACCCACGGAGTCACCTAGTGCAG”, the binding signal was 4770 fluorescence intensity (a.u.). With “AAAATACAGATCCGTGTTTGAGTCAGATTTTAAATTCGTTCGGAGTCACCTAGTGCAG”, the binding signal was 3140 fluorescence intensity (a.u.). On to “TACCTCCAAAGGCAGTTCATTTCGAAGTCAAAGAGAAGTTCGGAGTCACCTAGTGCAG”, for which the binding signal is 3360 fluorescence intensity (a.u.). The same measure for “CGCGTGCCCAGCGCGCGTCACGTGGTCACACGCGGTGCGGCGGAGTCACCTAGTGCAG”: 3870 fluorescence intensity (a.u.); for “TACTTGCGGTAACCTGTCAATTGGTCATACGTCAAGGGTCCGGAGTCACCTAGTGCAG”: 4320 fluorescence intensity (a.u.); for “TAAATTTGACTAAATATAACCCATGGTGACGTATCGACTACGGAGTCACCTAGTGCAG”: 5630 fluorescence intensity (a.u.). In the case of “TCAAACATCTGATGTGACATGGACTAAAGTTTAGTCCCTACGGAGTCACCTAGTGCAG”, the binding signal was 4150 fluorescence intensity (a.u.). As for “TTCTCCCACCGCATCCTCTCTCCCCTTGAGTATTTACTTTCGGAGTCACCTAGTGCAG”, the binding signal was 3420 fluorescence intensity (a.u.). The same measure for “ATTATTCATAAGCTGAATATTCTTATTCATACATTCGGATCGGAGTCACCTAGTGCAG”: 6460 fluorescence intensity (a.u.); for “ACAAGTTGAGTCATGTTCACGTCAGTTGGGTGGTATGAATCGGAGTCACCTAGTGCAG”: 5980 fluorescence intensity (a.u.); for “GCTTGCTTTTCCTCTCCTGACGCGTGCGCTGCTGCTGCTCCGGAGTCACCTAGTGCAG”: 4840 fluorescence intensity (a.u.). As to “CGGCCGCCGGCGCCCTCCACGACCCCAACGTCGACATGCTCGGAGTCACCTAGTGCAG”, the binding signal was 4310 fluorescence intensity (a.u.). In the case of “CACAAATCCAGATCGTATCAGCTGATTGATTCATTCTGATCGGAGTCACCTAGTGCAG” it was 3160 fluorescence intensity (a.u.). Turning to “ATCCAGCTCCACCTCTATAGTTCAGCCTTGTTTGGCACCGCGGAGTCACCTAGTGCAG”, the binding signal was 3270 fluorescence intensity (a.u.). Consider “GCCACTGGATCCAGCGACCCCGGCCACTTCGCCGGCGGCTCGGAGTCACCTAGTGCAG”, for which the binding signal was 3340 fluorescence intensity (a.u.). For the sequence “AGACTTTCAGTAAACTCCCCACATCATCATGTTATTATCGCGGAGTCACCTAGTGCAG”, the binding signal is 3980 fluorescence intensity (a.u.). Turning to “GCATCCCAGCCGTCCACGTCCCGGAGGAATAACACACCCTCGGAGTCACCTAGTGCAG”, the binding signal is 4270 fluorescence intensity (a.u.). Take “TAAAATCAATCAGGTTTCAATATCAATAGGTGTTTTCACTCGGAGTCACCTAGTGCAG”: the binding signal was 3240 fluorescence intensity (a.u.). Turning to “GCGGGAAGGCGCGCAGTGACGGCAACGGTGACCCCACATGCGGAGTCACCTAGTGCAG”, the binding signal is 3820 fluorescence intensity (a.u.).

For the sequence “ATCCGCAGTTCCACCCGCACGTGACTGCATAATACCGTGACGGAGTCACCTAGTGCAG”, the binding signal is 3440 fluorescence intensity (a.u.). Turning to “TTCGAGGAGGGGTTCTCCTTCTCCCGCGACGTCACCTACGCGGAGTCACCTAGTGCAG”, the binding signal was 4400 fluorescence intensity (a.u.). Consider “TAATTAACGGTCGAGTTGCAGCTGATGTGTATAATCATCGCGGAGTCACCTAGTGCAG”, for which the binding signal is 4270 fluorescence intensity (a.u.). The same measure for “TTGAAATTTAAAACTCGGTATTTAATTTAGTCTCATTGCTCGGAGTCACCTAGTGCAG”: 30700 fluorescence intensity (a.u.); for “GAAGAGCGCCACGAGGCCGGCGAGGAAGCTCCGATCGACGCGGAGTCACCTAGTGCAG”: 3170 fluorescence intensity (a.u.); for “GAATCGGGGTCTACAGCTGGCATGGTACGGATCGAACTCGCGGAGTCACCTAGTGCAG”: 3990 fluorescence intensity (a.u.).

With “ATAAGATTCATTCATCAGCAACGTTGACGTAAGCTTCCGTCGGAGTCACCTAGTGCAG”, the binding signal is 5770 fluorescence intensity (a.u.).
